Measurements published in PubChem BioAssay AID2685 (National Center for Advancing Translational Sciences (NCATS), 2010).
Some of the results follow. The main result of the screen is listed elsewhere. These columns were measured beside it and carry no call. The list favours compounds with an active or inconclusive main result. The note in brackets gives the kind of curve behind each potency; many fits are weak.

Experiment: qHTS Assay for Lipid Storage Modulators in Drosophila S3 Cells;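 for cell number change: cells counted by Cell Tracker Red CMTPX staining in the red channel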
Conditions: BODIPY lipid droplet fluorescence, 18-24 h; for cell number change: measured here: cell count max response, cells fed with added oleic acid
Outline: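 Laser-scanning cytometry quantifies lipid droplet accumulation (500–530 nm total intensity; droplet/cell object ratio) in oleic acid-fed (400 uM added) Drosophila S3 cells treated with a concentration series. 20 uM Triacsin C defined 100% inhibition.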

[1] = measured here: lipid fluorescence (Fed channel) AC50, cells fed with added oleic acid
[2] = measured here: cell number channel AC50, cells fed with added oleic acid

Structure (SMILES)	AC50 [1]	cell number change	AC50 [2]
CN(CC(=O)Nc1ccccc1Br)C(=O)CCc1nc2ccccc2c(=O)[nH]1	1.03 µM [rising, partial curve]	–	–
CC(Sc1nnc(COc2ccc3ccccc3c2)n1C)C(=O)O (configuration not stated)	–	13.2%	–
C[C@@H]1CC=C[C@H]2[C@H]1C(=O)N(Cc1ccccc1)[C@H]2c1ccc(Br)cc1F	14.6 µM [falling, partial curve]	-25.1%	–
Cc1ccc(-n2c(C)cc(/C=N/NC(N)=S)c2C)cc1	–	9.1%	4.11 µM [falling, single point]
C#CCCc1ccccc1/C=[N+](/C)[O-]	2.31 µM [falling, partial curve]	-12.2%	–
CN(C)CCCNC(=O)c1cc(C(=O)Cc2ccccc2)c[nH]1	1.03 µM [falling, partial curve, poor fit]	-46.3%	29.1 µM [falling, single point]
O=C(CCCCCn1c(=S)[nH]c2ccc(N3CCOCC3)cc2c1=O)NCc1cccc(Cl)c1	29.1 µM [falling, single point]	-37.1%	29.1 µM [falling, single point]
Cc1n[nH]c(=O)c2c(NC(=O)COC(=O)/C=C/c3cccc(C(F)(F)F)c3)oc(C)c12	4.61 µM [rising, partial curve]	27.4%	–
COc1ccc(S(=O)(=O)N(C)CC(=O)Nc2ccccc2C(F)(F)F)cc1OC	–	13.1%	–
COc1ccc(N2CCN(C(=O)COC(=O)COc3cc(C)cc(C)c3)CC2)cc1	–	-35.7%	11.6 µM [falling, partial curve]
Cc1ccc(S(=O)(=O)NCCN=C(CN2CCOCC2)NS(=O)(=O)c2ccc(C)cc2)cc1	6.51 µM [rising, single point]	80.5%	13 µM [rising, partial curve]
CC(=O)N/C(=N\OCc1ccc(Br)cc1)c1nonc1NC(C)=O	2.31 µM [rising, full curve, poor fit]	2.88%	–
COc1ccc2nc(Nc3ccccc3OC)sc2c1	–	11.2%	–
COc1cc(N)c(Cl)cc1C(=O)N[C@H]1CCN(CCCOc2ccc(F)cc2)C[C@H]1OC	2.91 µM [rising, full curve]	-3.12%	–
Oc1ccc(C=Nc2cccc3ccccc23)c(O)c1	–	-27.4%	–
CCC(=O)OCC(=O)Nc1cc(S(=O)(=O)N(C)C)ccc1Cl	–	11.7%	0.103 µM [rising, full curve, poor fit]
CN(CC(=O)Nc1ccccc1Br)C(=O)c1ccc(COc2ccccc2)cc1	–	30.8%	0.082 µM [rising, full curve, poor fit]
CCC(=O)Nc1ccc(S(=O)(=O)Nc2c(C)nc3nc[nH]n3c2=O)cc1	0.146 µM [falling, single point]	-0.84%	–
Cc1cc(C)c2c(CC(=O)O)c(C)[nH]c2c1	–	16.5%	–
N#C/C(=C\c1ccc[nH]1)Sc1nc2ccccc2s1	–	-0.323%	–
O=c1ccc(-c2ccc(S(=O)(=O)Nc3cccc([N+](=O)[O-])c3)s2)n[nH]1	29.1 µM [falling, single point]	–	–

Of the compounds above, these contain a CF3 group:
Structure (SMILES)	AC50 [1]	cell number change	AC50 [2]
Cc1n[nH]c(=O)c2c(NC(=O)COC(=O)/C=C/c3cccc(C(F)(F)F)c3)oc(C)c12	4.61 µM [rising, partial curve]	27.4%	–
COc1ccc(S(=O)(=O)N(C)CC(=O)Nc2ccccc2C(F)(F)F)cc1OC	–	13.1%	–

The list continues.

Structure (SMILES)	AC50 [1]	cell number change	AC50 [2]
CN(C)S(=O)(=O)c1ccc(C(=O)Nc2nc(-c3cccs3)cs2)cc1	9.2 µM [falling, partial curve]	-21%	–
COc1ccc(OC(=O)c2c(C)nn(-c3ccccc3)c2C)cc1	–	-38.5%	29.1 µM [falling, single point]
CCCn1nnnc1NCc1ccccc1OCC	–	32.7%	4.61 µM [rising, partial curve, poor fit]
Cn1c(-c2ccc(Cl)cc2)cnc1N	–	18.1%	–
COc1ccc(Cn2c(=N)c(C(=O)NC3CCCCC3)cc3c(=O)n4ccccc4nc32)cc1	–	–	0.411 µM [falling, single point]
COc1ccc(C(=O)NC(NC(=O)c2ccc(OC)cc2)c2ccccc2F)cc1	–	158%	14.6 µM [rising, partial curve]
CCCn1c(SCc2ccccc2)nc2c1c(=O)[nH]c(=O)n2C	9.2 µM [rising, partial curve]	7.34%	–
Cc1ccc(NC(=O)COc2ccc(-n3ccnc3)cc2)cc1Cl	29.1 µM [falling, single point]	-29%	–
Cc1cccc(-n2c(=O)c3ccccc3n3c(=S)[nH]nc23)c1C	6.51 µM [falling, partial curve, poor fit]	6.52%	–
CC(C)c1ccc(OCC(=O)NCc2ccccc2)cc1	–	7.94%	–
COc1ccc(/C(N)=N/OC(=O)CCCN2C(=O)c3ccccc3C2=O)cc1OC	4.11 µM [rising, single point]	3.28%	2.31 µM [rising, partial curve]
Cc1ccc(-n2nc3cc(C)c(NC(=S)NC(=O)/C=C/c4ccco4)cc3n2)cc1	0.92 µM [rising, full curve, poor fit]	–	–
C/C(CC(=O)NC(C)C)=N\NC(=O)C(c1ccccc1)c1ccccc1	0.291 µM [rising, partial curve, poor fit]	23.2%	–
N#Cc1cc2sc3nc4ccccc4n3c2cc1C#N	–	15%	–
COc1ccc(NC(=O)C2CCCCN2CC(=O)OCc2ccccc2)cc1OC (configuration not stated)	9.2 µM [rising, partial curve, poor fit]	–	–
COc1cc(CCC(=O)OCC(=O)Nc2ccc(F)c(F)c2)cc(OC)c1OC	5.17 µM [rising, single point]	–	–
CC(C)(C)c1csc(NC(=O)c2ccncc2)n1	–	-1.92%	6.51 µM [rising, single point]
CC(C)(C)c1ccccc1NC(=S)NC1CCCC1	0.58 µM [falling, single point]	–	–
CCNc1nnc(SCC(=O)N2c3ccccc3NC(=O)CC2C)s1 (configuration not stated)	–	0.413%	–
COC(=O)C(C)Sc1nc2c([nH]c3ccccc32)c(=O)n1C (configuration not stated)	0.082 µM [rising, full curve, poor fit]	-38.3%	29.1 µM [falling, single point]
Cc1ccc(/C=N/NC(=O)Cn2cnc3ccccc32)cc1	0.58 µM [falling, single point]	–	0.58 µM [falling, single point]
